Reference: patent US20250049680A1, “COMPOSITIONS AND METHODS FOR TREATING DENTIN CARIES” (Rutgers, The State University of New Jersey, priority 2023, published 2025)
Some entries share one result that the patent states for a list of compounds. At least one structure is not confirmed: it was looked up by name or label, or the drawing left a doubt. Some ranges recur; such a range may be that of the whole group of compounds.

Experiment: Solubility evaluation: weight loss of fortified dentin in butyric acid
Design: species or system human
Settings: butyric acid solubility test, relative to saline
Method: The column was further developed with 150 mL of one of five metal chloride solutions (0.1 mol/L AA2P salts of Mg, Zn, Mn, Sr, and Ba) to obtain a fraction containing new cationic L-ascorbic acid 2 phosphates with Mg, Zn, Mn, Sr, or Ba (FIG. 2). The prepared dentin specimens were randomly divided into six groups according to the solution used. The canal of each section was covered with an adhesive wax at the lower surface of the dentin specimen. Dentin specimens were then irrigated with one of five intervening solutions (AA2P salts of Mg (0.18 mM), Zn (5.3 μM), Mn (2.2×10^-8 M), Sr (1.8 μM), and Ba (1.9 μM)) for five minutes, with the saline solution used as the control group. The root canals were then flushed with 10 mL of distilled water immediately after each treatment to remove excess solution. […]
Fortified dentin specimens were completely immersed in 30 ml of 0.1 M butyric acid buffered with synthetic tissue fluid (pH 4.4) for 24 hours at 37 degrees C. and 100% relative humidity. After incubation, the specimens were removed from the acidic solutions, rinsed with distilled water to remove any residual acid, and dried. The weight of the dentin slices was measured by a digital microbalance before and after immersion into butyric acid, and the difference in weight provided information on dentin solubility.

## O=C1O[C@H]([C@@H](O)CO)C([O-])=C1OP(=O)([O-])[O-].O=C1O[C@H]([C@@H](O)CO)C([O-])=C1OP(=O)([O-])[O-].[Ba+2].[Ba+2].[Ba+2] [Ba]
  resistance to dentin solubility than the saline solution: 2-2.5 times
